Laboratory results reported in paper PMC11820759.
The exact form of at least one protein or probe is not confirmed. No signal at the amounts used counts as a negative.

Chains of the proteins cited; added tags and fusions are not shown. Chains listed by the source or under a name are the forms on record and can include a tag or linker.
His-WRKY28 (BnaA03.WRKY28) (Brassica napus), one chain, as listed by the source: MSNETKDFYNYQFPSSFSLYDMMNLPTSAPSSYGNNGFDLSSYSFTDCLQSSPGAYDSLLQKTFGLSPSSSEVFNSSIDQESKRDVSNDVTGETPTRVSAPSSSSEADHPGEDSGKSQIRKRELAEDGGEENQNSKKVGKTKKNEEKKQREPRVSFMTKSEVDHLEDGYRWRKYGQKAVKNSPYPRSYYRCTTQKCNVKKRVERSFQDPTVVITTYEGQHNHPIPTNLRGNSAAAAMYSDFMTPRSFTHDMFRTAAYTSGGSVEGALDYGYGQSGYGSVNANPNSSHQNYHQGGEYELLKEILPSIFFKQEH

Tested on: His-WRKY28 (BnaA03.WRKY28) (Brassica napus)
Assay: EMSA
Details: 25 nM probe; EMSA/Gel-shift Binding Buffer (Beyotime GS005), 25 nM Cy5 probe, 23 °C 30 min; 6% native PAGE, 0.5x TBE pH 8.3, 4 °C; salt and binding pH not stated; recombinant protein; protein details: His; label: Cy5

## CAACATATCAAACAATCATCAGAGAGATCATCATCAATTCCTACAA (double strand) [mA01/C01.BRC1-probe]
  binding result: no binding
